Laboratory results from patent WO2016075546A2.
No constants are given. Whether binding was seen depends on the method and setting. Some binding calls cover weakened binding; strength is not graded here.

B1: EVB114 (parental EVB114 antibody) (antibody, V domains shown)
VH: EVQLVESGGGLIQPGGSLRLSCAASGFALRMYDMHWVRQTIDKRLEWVSAVGPSGDTYYADSVKGRFAVSRENAKNSLSLQMNSLTAGDTAIYYCVRSDRGVAGLFDSWGQGILVTVSS
VL: DIQMTQSPSSLSASVGDRITITCRASQAFDNYVAWYQQRPGKVPKLLISAASALHAGVPSRFSGSGSGTHFTLTISSLQPEDVATYYCQNYNSAPLTFGGGTKVEIK
B2: EVB165 (antibody, V domains shown)
VH: DVQLVESGGGVVQPGGSLKLACVVSGFRFSDYWMSWVRQAPGKGLEWVANIKQDGSGKYYVDSVKGRFTVSRDNAKNSLYLHMTSLGAEDTAVYFCARAAPTGSYTNILVDNVHFDYWGQGILVAVSS
VL: GIQLTQSPGSLSASVGDSVTITCRPNQNIATYINWYQQTPGKAPKLLIYAASILQSGVPSRFSGAGSGTHFTLIISTLQPEDSATYYCQQSYSTPWTFGQGTKVEIK

Tests used:
[1] = biological target: ZEBOV GP protein (coated, ELISA) (Zaire ebolavirus (ZEBOV)) (UniProt Q05320); assay: ELISA titration on coated GP
[2] = biological target: ZEBOV GP protein (coated, ELISA) (Zaire ebolavirus (ZEBOV)) (UniProt Q05320); assay: ELISA cross-competition on GP-coated plates
[3] = biological target: EBOV GP expressed on the surface of MDCK-SIAT cells (Ebola virus (EBOV)) (UniProt Q05320); assay: FACS, serial dilutions on MDCK-SIAT cells expressing EBOV GP

Row | Binder | binding [1] | binding [2] | binding [3]
1 | B1 | binds | binds | binds
2 | B2 | binds | – | –
